Reference: PubChem BioAssay AID1259254 (NCATS, 2017)
The whole screen tested about 59,000 reagents; below is an unselected part. About 1,550 of them (2.6%) were called active. 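G2 share is only a proxy for re-replication; each gene was hit by three separate siRNAs, and active genes were retested.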 Reagents against one gene are numbered here. Further read-outs or replicates are left out here. Not given: the amount of reagent.

- Aim: 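Genome-wide screen for genes that prevent DNA re-replication in cancer cells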 (primary screen)
- System: human HCT116 colorectal cancer cells
- Reagents: single siRNA against human genes
- Duration: 3 days
- Measurement: 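Imaged Hoechst DNA stain sorts each cell into a cycle phase by DNA amount; per plate, G2 fraction set to 0% for non-targeting and 100% for GMNN siRNA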
- Reading the numbers: G2 robust z-score: higher = more G2 cells, more excess DNA replication
- Active means: 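Active siRNAs have a G2 robust z of 5 or more median absolute deviations over the median, which in these data means about 38% or higher of GMNN control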

gene,reagent,G2 robust z-score,call
KCNE5,1,3.35,inactive
KCNE5,2,0.473,inactive
KCNE5,3,1.62,inactive
DUSP18 (dual specificity phosphatase 18),1,-1.03,inactive
DUSP18 (dual specificity phosphatase 18),2,0.0313,inactive
DUSP18 (dual specificity phosphatase 18),3,0.412,inactive
PRMT6 (protein arginine methyltransferase 6),1,-0.585,inactive
PRMT6 (protein arginine methyltransferase 6),2,-0.0659,inactive
PRMT6 (protein arginine methyltransferase 6),3,0.618,inactive
CRTAP (cartilage associated protein),1,-0.662,inactive
CRTAP (cartilage associated protein),2,-0.854,inactive
CRTAP (cartilage associated protein),3,0.179,inactive
GCLC (glutamate-cysteine ligase catalytic subunit),1,-1.25,inactive
GCLC (glutamate-cysteine ligase catalytic subunit),2,1.79,inactive
GCLC (glutamate-cysteine ligase catalytic subunit),3,3.79,inactive
UAP1 (UDP-N-acetylglucosamine pyrophosphorylase 1),1,0.868,inactive
UAP1 (UDP-N-acetylglucosamine pyrophosphorylase 1),2,-0.931,inactive
UAP1 (UDP-N-acetylglucosamine pyrophosphorylase 1),3,-0.528,inactive
SDR9C7 (short chain dehydrogenase/reductase family 9C member 7),1,-0.633,inactive
SDR9C7 (short chain dehydrogenase/reductase family 9C member 7),2,-0.69,inactive
SDR9C7 (short chain dehydrogenase/reductase family 9C member 7),3,-1.31,inactive
INPP5B (inositol polyphosphate-5-phosphatase B),1,-0.601,inactive
INPP5B (inositol polyphosphate-5-phosphatase B),2,-0.633,inactive
INPP5B (inositol polyphosphate-5-phosphatase B),3,-0.169,inactive
RPS23P8 (ribosomal protein S23 pseudogene 8),1,0.77,inactive
RPS23P8 (ribosomal protein S23 pseudogene 8),2,1.08,inactive
RPS23P8 (ribosomal protein S23 pseudogene 8),3,3.88,inactive
TMPRSS11A (transmembrane serine protease 11A),1,0.813,inactive
TMPRSS11A (transmembrane serine protease 11A),2,-0.777,inactive
TMPRSS11A (transmembrane serine protease 11A),3,0.0817,inactive
PTAFR (platelet activating factor receptor),1,2.84,inactive
PTAFR (platelet activating factor receptor),2,1.64,inactive
PTAFR (platelet activating factor receptor),3,0.657,inactive
MST1R (macrophage stimulating 1 receptor),1,0.414,inactive
MST1R (macrophage stimulating 1 receptor),2,1.12,inactive
MST1R (macrophage stimulating 1 receptor),3,1.08,inactive

Copied from the list:
Under “call”, TMPRSS11A (transmembrane serine protease 11A) #3 reads inactive
CRTAP (cartilage associated protein) #3, call: inactive
Under “G2 robust z-score”, RPS23P8 (ribosomal protein S23 pseudogene 8) #3 has 3.88
For “call”, MST1R (macrophage stimulating 1 receptor) #1 is entered as inactive
Under “call”, SDR9C7 (short chain dehydrogenase/reductase family 9C member 7) #3 reads inactive
For “call”, CRTAP (cartilage associated protein) #1 shows inactive

Next results follow.
gene,reagent,G2 robust z-score,call
GPR19 (G protein-coupled receptor 19),1,6.12,active
GPR19 (G protein-coupled receptor 19),2,-0.0462,inactive
GPR19 (G protein-coupled receptor 19),3,2.23,inactive
RBM25 (RNA binding motif protein 25),1,-0.627,inactive
RBM25 (RNA binding motif protein 25),2,1.64,inactive
RBM25 (RNA binding motif protein 25),3,0.277,inactive
LINGO1 (leucine rich repeat and Ig domain containing 1),1,0.0835,inactive
LINGO1 (leucine rich repeat and Ig domain containing 1),2,-1.07,inactive
LINGO1 (leucine rich repeat and Ig domain containing 1),3,-0.736,inactive
FYRD1 (FYRN and FYRC domains INO80 complex interactor 1),1,-0.221,inactive
FYRD1 (FYRN and FYRC domains INO80 complex interactor 1),2,2.88,inactive
FYRD1 (FYRN and FYRC domains INO80 complex interactor 1),3,1.96,inactive
SMYD1 (SET and MYND domain containing 1),1,0.186,inactive
SMYD1 (SET and MYND domain containing 1),2,0.189,inactive
SMYD1 (SET and MYND domain containing 1),3,0.238,inactive
ZNF101 (zinc finger protein 101),1,0.0763,inactive
ZNF101 (zinc finger protein 101),2,3.34,inactive
ZNF101 (zinc finger protein 101),3,2.33,inactive
TIMD4 (T cell immunoglobulin and mucin domain containing 4),1,-0.458,inactive
TIMD4 (T cell immunoglobulin and mucin domain containing 4),2,-0.108,inactive
TIMD4 (T cell immunoglobulin and mucin domain containing 4),3,0.454,inactive
ANO9 (anoctamin 9),1,0.33,inactive
ANO9 (anoctamin 9),2,2.5,inactive
ANO9 (anoctamin 9),3,0.324,inactive
SOST (sclerostin),1,-0.279,inactive
SOST (sclerostin),2,1.56,inactive
SOST (sclerostin),3,0.701,inactive
OPRK1 (opioid receptor kappa 1),1,6.24,active
OPRK1 (opioid receptor kappa 1),2,-0.683,inactive
OPRK1 (opioid receptor kappa 1),3,0.0716,inactive
SPCS1 (signal peptidase complex subunit 1),1,3.13,inactive
SPCS1 (signal peptidase complex subunit 1),2,-0.348,inactive
SPCS1 (signal peptidase complex subunit 1),3,0.386,inactive
